Measured values taken from patent publication US20170165259A1, “COMBINED MODULATION OF IRE1” (THE REGENTS OF THE UNIVERSITY OF CALIFORNIA, priority 2014, published 2017).
At least one structure is not confirmed: it was looked up by name or label, or the drawing left a doubt.

Tested on: P23H rats
Experiment: P23H rhodopsin transgenic rat, intravitreal injection
Assay type: in vivo
Settings: intravitreal injection at P9 and P15

SMILES: CC(C)(C)c1nc(-c2ccc(NC(=O)Nc3cccc(C(F)(F)F)c3)c3ccccc23)c2c(N)nccn12 [KIRA6, 1-(4-(8-amino-3-tert-butylimidazo[1,5-a]pyrazin-1-yl)naphthalen-1-yl)-3-(3-(trifluoromethyl)phenyl)urea]
- ONL thickness (photoreceptor loss) at P40: partial, yet statistically significant, protection from photoreceptor loss
